# Several values for one entry are separate records, joined by “and”; a condition that tells them apart may be missing. Equal entries are not always repeated. The campaign covered roughly 340,000 compounds. About 170 (0.05%) were called active. The inconclusive results got no clear call from the source; some entries with a clear call stand among them for comparison. Calls follow the shape of the dose curve; as a rule, active = well fitted inhibition curve with a large enough effect in the signal ratio, with a control signal flat (not every such curve was filed as active); inconclusive = small, poorly fitted or top-dose-only effect, or effect the other way, or a change in a side signal; inactive = flat fitted curve, though single readings scatter; the % refers to the signal ratio. A potency beside an inconclusive call is a rough fit, not a confirmed value.
# Assay: qHTS Assay to Find Inhibitors of Chronic Active B-Cell Receptor Signaling;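 as to activity change, negative = inhibition: plate controls were basal doxycycline-induced cells for no effect and cells given 10 µM MG132 for full effect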
# Details: ABC-DLBCL IkBa-CBG/CBR reporter, luminescence ratio (green luciferase fused to IkBa over red control in TMD8 lymphoma cells), 4 h; activity change, negative = inhibition: at 46.1 µM (top of the series) unless noted
# Method in brief: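 TMD8 ABC-DLBCL cells carrying doxycycline-inducible green luciferase fused to IkappaBalpha plus unfused red luciferase were exposed to compounds (up to 46 uM) for 4 hrs at 37C. Activity came from the overlap-corrected green/red luminescence ratio.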
# Potency is read from the fitted curve at half-maximal effect.
Structure (SMILES),"activity change, negative = inhibition",Potency
COc1cc(/C=N/OCC(=O)NC23CC4CC(CC(C4)C2)C3)ccc1OCc1ccccc1,inconclusive: 18.4%,–
O=C(c1cccs1)N1CCN(Cc2cn[nH]c2-c2ccc(F)cc2F)CC1,–,"inconclusive: 35.5 µM [falling, single point]"
O=C(Nc1c(C(=O)N2CCN(c3ccccc3)CC2)oc2ccccc12)c1ccccc1F,inconclusive: 13.1%,–
Cc1ccnc(NC(c2cccnc2)c2ccc3cccnc3c2O)c1 (configuration not stated),inconclusive: -18.5%,–
CC(CC(=O)Nc1cccc(F)c1)S(=O)(=O)c1ccc2c(c1)NC(=O)CO2 (configuration not stated),inactive: -2.08%,–
Cc1ccc(NC(=O)C2CCCN(c3ncnc4c3nc3n4CCCCC3)C2)cc1Cl (configuration not stated),inconclusive: -0.915%,–
Cc1cc(C(=O)NN=C(Cc2ccccc2)Cc2ccccc2)c(C)o1,–,"inconclusive: 23.1 µM [falling, partial curve]"
Cc1ccc(NC(=O)COC(=O)COc2cccc3c2OC(C)(C)C3)cc1C,inconclusive: 2.43%,–
CCn1c(CNc2ccc(C)cc2C)nnc1SCC(=O)N1CCCc2ccccc21,inconclusive: 2.29%,–
CN1CCN(CCCNC(=O)CCN2C(=O)COc3ccccc32)CC1,inconclusive: 4.69%,–
CCOc1ccc(-c2c(=O)n(OCc3ccc([N+](=O)[O-])cc3)c3ccccc3[n+]2[O-])cc1,–,"inconclusive: 23.1 µM [falling, single point]"
Cc1nonc1OCCCNc1ccc([N+](=O)[O-])cc1Cl,inconclusive: 5.04%,–
O=C(Nc1nc(-c2cc(Cl)sc2Cl)cs1)c1cccs1,inconclusive: 4.29%,–
CC(=C\c1ccccc1)/C=C1/SC(=S)N(C(C(=O)O)C(C)C)C1=O (configuration not stated),inconclusive: -20.6%,–
O=C(NCC1CCCO1)c1sc2cc(Cl)ccc2c1Cl (configuration not stated),–,"inconclusive: 29.1 µM [falling, single point]"
O=S(=O)(c1ccccc1)c1nc(-c2ccccc2Cl)oc1NCCN1CCOCC1,–,"inconclusive: 25.9 µM [falling, single point]"
Cc1ccc(C)c(N2CCN(S(=O)(=O)c3c(C(=O)N4CCCCC4)c(C)n(C)c3C)CC2)c1,inconclusive: 5.06%,–
COc1cccc(N2CCN(c3ncnc4c3[nH]c3ccc(F)cc34)CC2C)c1 (configuration not stated),inconclusive: 1.37%,–
Cc1cccnc1NC(=O)C(C)Oc1ccccc1 (configuration not stated),–,"inconclusive: 7.31 µM [rising, partial curve, poor fit]"
COc1cc(/C=C2\CC(C(C)(C)C)C/C(=C\c3cc(OC)c(OC)c(OC)c3)C2=O)cc(OC)c1OC (configuration not stated),–,"inconclusive: 0.891 µM [falling, partial curve, poor fit]"
CCOC(=O)NC1(Nc2ccc(Cl)cn2)Oc2ccccc2O1,–,"inconclusive: 17.8 µM [falling, partial curve, poor fit]"
COc1ccc(/C=N\NC(=O)COc2ccccc2Cl)cc1Cn1nc(C)cc1C,inconclusive: 7.39%,–
COc1ccc(NC(=O)CSc2nnc(Cc3ccccc3)c(=O)n2N)c(OC)c1,inconclusive: -1.19%,–
COC(=O)Cc1c(C)c2ccc(OCC(C)=O)c(C)c2oc1=O,inconclusive: -13.4%,–
Cc1nnc(NC(=O)COc2ccccc2)s1,inconclusive: -19%,–
O=C(NCCc1ccccc1)C(=O)N/N=C/c1ccccc1C(F)(F)F,inactive: -6.1%,–

Structure (SMILES),"activity change, negative = inhibition",Potency
COc1ccc(CCNC(=O)Cn2c(=O)n(CC3CCCO3)c(=O)c3cc(OC)c(OC)cc32)cc1OC (configuration not stated),inconclusive: 2.86%,–
Brc1ccc(/C=N/Nc2nc3ccccc3o2)cc1,–,"inconclusive: 17.8 µM [falling, partial curve, poor fit]"
COc1ccc(OC)c(-c2csc(NC(=O)Cc3ccc(OC)c(OC)c3)n2)c1,inconclusive: 5.14%,–
CCN(CC)S(=O)(=O)c1cccc(-c2nnc(SCCOc3ccccc3C)o2)c1,inactive: -1.53%,–
C=CCn1c(=O)c2ccccc2n2c(SCC(C)=O)nnc12,inconclusive: -3.96%,–
Cc1ccc(N=Cc2c(O)c3ccccc3oc2=O)cc1F,–,"inconclusive: 0.562 µM [falling, full curve, poor fit]"
CCCc1nnc(NC(=O)c2cc(OC)cc(OC)c2)s1,–,"inconclusive: 7.08 µM [falling, partial curve]"
O=C(Nc1cccc(Cl)c1)c1ccncc1,inconclusive: 1.83%,–
O=C1/C(=C\c2ccc3c(c2)OCO3)CCC/C1=C/c1ccc2c(c1)OCO2,inactive: -2.4%,–
COc1cc(N=c2c([N+](=O)[O-])nn(-c3ccc4c(c3)OCCO4)n2O)cc(OC)c1,–,"inconclusive: 20.6 µM [falling, partial curve]"
Cc1cc(Cl)n2ncc(-c3ccccc3)c2n1,–,"inconclusive: 31.6 µM [falling, single point]"
O=S(=O)(Nc1ncn[nH]1)c1ccc2ccccc2c1,inactive: -3.69%,–
O=C(CNc1ccc(Cl)cc1)c1ccc(Br)cc1,inconclusive: 2.79%,–
COc1ccc(/C=C/C=C2\N=C(SC)SC2=O)cc1,–,"inconclusive: 8.2 µM [rising, partial curve, poor fit]"
N#Cc1ccsc1NC(=O)CN1CCN(S(=O)(=O)c2cc(Cl)ccc2Cl)CC1,inconclusive: 5.25%,–
CCc1ccc(-c2cc(C)no2)cc1S(=O)(=O)N1CCN(c2cccc(C)c2C)CC1,inactive: 2.78%,–
CCC(c1nnnn1C1CCCC1)N(Cc1cccs1)Cc1cc2cccc(C)c2[nH]c1=O (configuration not stated),inconclusive: -0.991%,–
C=C1C(=O)O[C@H]2C1CC[C@@](C)(O)C13C=CC(C)(C21)C1(C3)C(=O)O[C@@H]2C3C(C)=CCC3[C@](C)(O)C[C@H](OC(C)=O)C21 (some centres not stated),–,"inconclusive: 23.1 µM [falling, partial curve, poor fit]"
O=C(NC1CC1)C1CCN(C2CCN(C(=O)/C=C/c3cccs3)CC2)CC1,–,"inconclusive: 28.2 µM [falling, single point]"
CC(C)=C1SC(N2CCN(Cc3ccccc3)CC2)=NC1=O,inconclusive: 3.73%,–
COc1ccc(NS(=O)(=O)c2ccc(C)c(NC(=O)c3ccc(C)c(S(=O)(=O)N4CCOCC4)c3)c2)cc1,inconclusive: 3%,–
O=C(NCCNc1ccc([N+](=O)[O-])cc1)c1ccco1,inactive: 14.7%,–
CC1=Nc2cc(C(=O)NC3CCCC3)ccc2Sc2ccc(Cl)cc21,–,"inconclusive: 11.2 µM [falling, partial curve]"
NC(=O)C1CCN(C(=O)COc2ccc3ccccc3c2Br)CC1,inactive: -9.08%,–
CCOC(=O)c1cnn(-c2cc(Oc3ccccc3C)ncn2)c1N,inconclusive: 32.1%,–
Cc1[nH]c2ccccc2c1/C=N/Nc1ccccc1[N+](=O)[O-],inconclusive: 17.9%,–

# One compound at a time (already shown). Values in the order: activity change, negative = inhibition	Potency
# `COc1cc(N=c2c([N+](=O)[O-])nn(-c3ccc4c(c3)OCCO4)n2O)cc(OC)c1` in the list: –	inconclusive: 20.6 µM [falling, partial curve]
# `O=C(Nc1cccc(Cl)c1)c1ccncc1` in the list: inconclusive: 1.83%	–

# The listing continues.

Structure (SMILES),"activity change, negative = inhibition",Potency
N#Cc1ccc(NC(=O)COC(=O)CNC(=O)C2CCCCC2)cc1,inactive: 14.1%,–
O=C(CN1CCN(S(=O)(=O)c2ccc(Br)cc2)CC1)N/N=C/c1cc([N+](=O)[O-])ccc1Cl,inconclusive: 11.9%,–
C=CCNC(=O)c1onc(CSc2ccccc2C)c1C(=O)O,–,"inconclusive: 35.5 µM [rising, single point]"
c1ccc(-c2nnc(-c3ccccn3)nc2NC2CCCCC2)cc1,–,"inconclusive: 20.6 µM [falling, single point]"
C/C(=N\NC(=S)Nc1cc(S(=O)(=O)N2CCOCC2)ccc1Cl)c1ccc(N2CCOCC2)cc1,inactive: -14.8%,–
COc1ccc(Cl)cc1NC(=O)CC(C)c1ccccc1 (configuration not stated),inconclusive: 28.5%,–
COc1ccc(C2Nc3ccccc3C(=O)N2c2ccccc2)cc1COc1ccccn1 (configuration not stated),inactive: 2.16%,–
CCn1c(COc2ccccc2C)nnc1SCC(=O)O,inactive: 3.91%,–
CCc1ccc(OC)c(-c2csc(N)n2)c1,–,"inconclusive: 3.98 µM [falling, single point]"
Cc1cc(=O)n2[nH]c(-c3ccc(C(C)(C)C)cc3)cc2n1,inconclusive: 3.29% and inconclusive: 13.6%,–
CC(Sc1nnc2ccccn12)C(=O)NCc1ccc2c(c1)OCO2 (configuration not stated),inconclusive: -14.1%,–
CCOc1ccc(-n2cc(-c3ccc(OC)c(OC)c3)[nH]c2=S)cc1,inactive: -1.87%,–
CCC(C)(C(=O)NC1CCCCC1)N(CC1CCCO1)C(=O)Cc1cccs1 (configuration not stated),–,"inconclusive: 35.5 µM [falling, single point]"
Cc1ccccc1NC(=O)Cc1nnc(NC(=O)Nc2ccccc2F)s1,inconclusive: -9.65%,–
O=C1C=C(c2cnc3ccccc3c2)C[C@@H](c2ccc3c(c2)OCO3)C1,inconclusive: 13.7%,–
OC(CNc1nc2ccccc2s1)c1ccccc1 (configuration not stated),–,"inconclusive: 20.6 µM [falling, single point]"
Cc1ccc(Cl)cc1N1CCN(S(=O)(=O)c2cn(C)cn2)CC1,inconclusive: -29.8%,–
CC(NC(=O)/C(C#N)=C/c1ccc([N+](=O)[O-])o1)c1ccccc1 (configuration not stated),–,"inconclusive: 31.6 µM [rising, single point]"
Cc1cc(NC(=O)c2ccc(N3C(=O)C4C5C=CC(C5)C4C3=O)cc2)no1 (configuration not stated),–,"inconclusive: 2.51 µM [rising, full curve, poor fit]"
ClC1(Cl)CC1Cn1c(C2CC2)nc2ccccc21 (configuration not stated),inconclusive: 8.69%,–
COc1ccccc1CNC(=O)CN1C(=O)N(C)C2(CCCCC2)C1=O,inconclusive: 0.437%,–
CN(Cc1cccc(Cl)c1Cl)C(=O)c1cc(S(=O)(=O)N2CCOCC2)ccc1F,inactive: -3.88%,–
Cc1nn(C)c(C(=O)NN)c1Cl,–,"inconclusive: 14.1 µM [falling, partial curve]"
Nc1nc(-c2ccco2)nn1C(=O)c1ccc(F)cc1,inconclusive: 5.36%,–
Cc1cc(C(=O)Nc2nnc(-c3ccccc3)s2)no1,–,"inconclusive: 8.91 µM [rising, partial curve]"

# Reference: PubChem BioAssay AID493014 (National Center for Advancing Translational Sciences (NCATS), 2011)
